Results are given in words; binding and its absence hold for the method and conditions named. Binding seen in cells or lysates may run through a third protein. Some binding calls cover weakened binding; strength is not graded here. Where a sequence is shown, tags or fusion partners need not be part of it.
Target: T1, full-length PDZD7 wild-type, N-terminal strep tag and C-terminal GFP (mouse) (UniProt E9Q9W7)
T1 sequence: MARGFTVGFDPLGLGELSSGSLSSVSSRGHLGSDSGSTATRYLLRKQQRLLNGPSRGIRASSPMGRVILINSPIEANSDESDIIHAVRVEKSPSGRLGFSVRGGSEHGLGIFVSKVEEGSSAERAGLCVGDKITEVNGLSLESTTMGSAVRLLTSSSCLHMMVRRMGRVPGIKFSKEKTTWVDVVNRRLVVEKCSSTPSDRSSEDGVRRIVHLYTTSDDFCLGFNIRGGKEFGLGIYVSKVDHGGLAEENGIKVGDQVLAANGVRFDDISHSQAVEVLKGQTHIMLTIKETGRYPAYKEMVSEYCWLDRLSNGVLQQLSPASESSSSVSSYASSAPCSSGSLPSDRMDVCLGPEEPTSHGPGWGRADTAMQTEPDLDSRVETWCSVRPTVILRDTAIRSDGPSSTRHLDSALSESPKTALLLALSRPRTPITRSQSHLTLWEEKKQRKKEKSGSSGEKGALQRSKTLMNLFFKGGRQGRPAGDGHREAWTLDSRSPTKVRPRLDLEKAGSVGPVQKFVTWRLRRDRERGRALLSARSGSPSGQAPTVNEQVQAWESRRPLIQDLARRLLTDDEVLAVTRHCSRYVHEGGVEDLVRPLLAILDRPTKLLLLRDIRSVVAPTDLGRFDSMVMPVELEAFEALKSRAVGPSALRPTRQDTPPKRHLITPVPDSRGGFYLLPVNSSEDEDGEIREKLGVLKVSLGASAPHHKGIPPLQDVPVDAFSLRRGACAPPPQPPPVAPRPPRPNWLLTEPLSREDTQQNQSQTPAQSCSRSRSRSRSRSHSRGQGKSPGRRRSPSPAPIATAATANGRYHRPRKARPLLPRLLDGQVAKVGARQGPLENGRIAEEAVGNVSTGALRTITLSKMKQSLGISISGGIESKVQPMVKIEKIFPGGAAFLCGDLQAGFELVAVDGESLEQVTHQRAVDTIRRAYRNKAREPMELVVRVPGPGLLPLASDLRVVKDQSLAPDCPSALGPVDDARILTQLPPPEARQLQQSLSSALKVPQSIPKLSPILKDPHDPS
Assay: pull-down; lysates of separately transfected HeLa cells mixed; PDZD7-GFP (bait) held on Dynabeads Protein G with coupled anti-GFP antibody, 1 h at 4°C; PBS Tween 0.01%, DDM 0.1%; ADGRV1 β (prey) detected by western blot

B1: ADGRV1 β subunit (seven transmembrane segments and cytoplasmic domain) (domain or fragment, UniProt Q8VHN7 5884-6298)
chain: SVYAVYAQTDNSSSYNEAFFSAGLICISGLCLAVVSHMFCARHSMFAAKLLTHMMVASLGTQILFLASAYASPHLSEESCSAVAAVAHYLYLCQFSWMLIQSVNFWYVLVVSDEHTERRCLLFCLLSWGLPSFVVILLILILRGIYHRSMPQIYGLIHGDLCFIPNIYAALFTAALVPLMCLVVVFVVFIHAYQLKPQWKGYDDVFRGRTNAAEIPLILYLFALISMTWLWGGLHMAYGHFWMLVLFVIFNSLQGLYVFVVYFILHNQTCCPMKASYTVEMNGHPGPSTAFFTPGSGIPPAGEINKSTQNLINAMEEVPSDWERSSFQQTSQASPDLKTSPQNGASFPSSGGYGPGSLIADEESQEFDDLIFALKTGAGLSVSDNESGQGSQEGGTLTDSQIVELRRIPIADTHL
**Q.** With B1 as the binder, how does the binding read?
**A.** Its binding is “binds”.
